Results reported in the supplement of paper PMC12889115.
The list shows a part of the results. Values are raw readings; no control value is given beside them.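 In the initial screen, polymyxin B was used at a concentration that permeabilizes Salmonella's outer membrane but not its inner membrane. Maximum growth was set by DMSO wells with or without polymyxin B. Since plates varied, data were ranked per plate, and compounds giving the lowest OD600 advanced as hits.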

Tested on: Salmonella enterica serovar Typhimurium SL1344
Assay: bacterial growth OD600 after 18 h with compound and polymyxin B; higher = more bacterial growth (less inhibition)
Details: 50 µM, Mueller-Hinton broth

| SMILES | bacterial growth OD600 (polymyxin B 0.75 µg/mL) | bacterial growth OD600 (polymyxin B 1 µg/mL) |
| --- | --- | --- |
| O=C1CCC(C(=O)NCc2cccnc2N2CCc3ccccc3C2)=NN1 | 0.74 |  |
| O=C(NCc1nnc2n1CCC2)C1(N2CCCCC2)Cc2ccccc2C1 | 0.841 |  |
| COc1ccc(-c2ccc(C(=O)N3CCC(CCC(=O)NC4CC4)CC3)o2)cc1 |  | 0.953 |
| Cc1nnc(CN(C)Cc2cn(Cc3ccccc3)nc2-c2cc3ccccc3o2)o1 |  | 0.831 |
| CCO[C@H]1[C@H](NC(=O)c2cccnc2)c2ccccc2C12CCN(C(=O)c1ocnc1C)CC2 | 0.952 |  |
| CCOC(=O)C1(Cc2ccc(OC)cc2)CCN(C(=O)c2ccccc2SC)CC1 |  | 0.663 |
| CCOc1cccc(CN2CCC3(CC2)c2ccccc2[C@@H](NC(=O)CSC)[C@@H]3OC)c1O | 0.946 |  |
| COCCc1nc2ccc(C(=O)NCCc3cnn(-c4ccccc4)c3)cc2o1 |  | 0.937 |
| COc1cccc(OCc2cc(C(=O)N3CCCC(OC)C3)no2)c1 (stereo unspecified) |  | 1.28 |
| COCCC(=O)NC1CC(=O)N(Cc2cccc(F)c2)C1 (stereo unspecified) |  | 0.9 |
| O=C(C1CCCN(Cc2nc(-c3cccc(Cl)c3)no2)C1)N1CCOCC1 (stereo unspecified) |  | 0.741 |
| O=C(COc1ccccc1)N[C@@H]1c2ccccc2C2(CCN(Cc3cc(Cl)ccc3O)CC2)[C@H]1O | 0.792 |  |
| Cc1ncc(CN(C)C2CCCN(CCc3ccccc3)C2)n1C (stereo unspecified) | 0.779 |  |
| O=C(c1ccc(N2CCC(NC(c3ccncc3)c3ccc(Cl)cc3)CC2)cc1)N1CCOCC1 (stereo unspecified) | 0.894 |  |
| CN(Cc1ccccc1)C1(CNC(=O)c2ccc[n+]([O-])c2)Cc2ccccc2C1 |  | 0.947 |
| COc1cc(=O)n2c(c1C(=O)NC(C)c1ccco1)CCN(Cc1cnn(C)c1C)CC2 (stereo unspecified) | 0.839 |  |

| SMILES | bacterial growth OD600 (polymyxin B 0.75 µg/mL) | bacterial growth OD600 (polymyxin B 1 µg/mL) |
| --- | --- | --- |
| O=C(Cn1nnnc1CN1CCOCC1)N1CCN(Cc2cccc(F)c2)CC1 |  | 0.635 |
| Cc1cccc(C(=O)N2CCC(C(Cc3ccccc3)N(C)C(=O)c3ccsc3)CC2)c1C (stereo unspecified) | 0.004 |  |
| COCCC(=O)N1CCCC(N2CCN(c3cccc(C(F)(F)F)c3)CC2)C1 (stereo unspecified) |  | 0.89 |
| COC(=O)C1CCCCN1C(=O)c1c(OC)cc(=O)n2c1CCN(C/C=C/c1ccco1)CC2 (stereo unspecified) | 0.883 |  |
| Cc1nnsc1C(=O)N1CCCC(CCc2ccccc2)C1 (stereo unspecified) | 0.565 |  |
| CN(Cc1ccccc1Cl)C(=O)c1coc(COc2ccccc2)n1 | 0.202 |  |
| Cc1nn(C)cc1CNC(=O)c1cc(COc2ccc3c(c2)OCO3)[nH]n1 |  | 0.868 |
| COCCCN1C(=O)CC(CC(=O)N2CCC(c3ccccc3F)C2)(c2ccccc2OC)C1=O (stereo unspecified) | 0.006 |  |
| Cc1cccc(CNC(=O)CC(c2cccc(O)c2)c2ccccc2Cl)n1 (stereo unspecified) |  | 0.871 |
| Cc1ccc2c(c1)CN(Cc1c(C)nc3sccn13)CC(c1ccsc1)O2 (stereo unspecified) | 0.099 |  |
| CCOC(=O)CCNC(=O)N1C[C@H]2OC(=O)N(CCc3ccccn3)[C@H]2C1 |  | 0.924 |
| COc1cccc(C(=O)N2CCC(C(Cc3ccccc3)N(C)C(=O)c3cccs3)CC2)c1OC (stereo unspecified) | 0.698 |  |
| CCO[C@H]1[C@H](NC(=O)c2ccco2)c2ccccc2C12CCN(Cc1c(C)nn(C(C)C)c1C)CC2 | 0.826 |  |
| Cc1nonc1C(=O)NC1CC(C)(C)Cc2nc(C(C)(C)C)ncc21 (stereo unspecified) |  | 0.978 |
| Cc1cc(Cl)c2oc(C(=O)N3CCCCC3CCN3CCCC3=O)c(C)c2c1 (stereo unspecified) |  | 0.004 |

An excerpt from above in order of length of the SMILES, rising.

| SMILES | bacterial growth OD600 (polymyxin B 0.75 µg/mL) | bacterial growth OD600 (polymyxin B 1 µg/mL) |
| --- | --- | --- |
| O=C(Cn1nnnc1CN1CCOCC1)N1CCN(Cc2cccc(F)c2)CC1 |  | 0.635 |
| CCOC(=O)CCNC(=O)N1C[C@H]2OC(=O)N(CCc3ccccn3)[C@H]2C1 |  | 0.924 |
| COC(=O)C1CCCCN1C(=O)c1c(OC)cc(=O)n2c1CCN(C/C=C/c1ccco1)CC2 (stereo unspecified) | 0.883 |  |
